No constants are given. Whether binding was seen depends on the method and setting. In cells and extracts the contact can be indirect. A result given as binding can be weak or reduced; the word gives no strength.
Assays:
Experiment in all cases: co-IP
[1] = biological target: truncated myc-tagged mitochondrial carrier protein 12 (MCP12ΔI-myc) (Trypanosoma brucei) (UniProt Q388W2)
[2] = biological target: C-terminally triple HA-tagged TbTim15 (Trypanosoma brucei) (UniProt Q586P9)
[3] = biological target: C-terminally triple HA-tagged TbTim20 (Trypanosoma brucei) (UniProt Q386Z2)
[4] = biological target: C-terminally triple HA-tagged Tb927.8.7010 (Trypanosoma brucei) (UniProt Q57YQ8)

In the case of “TbTim15 (Tb927.2.4445) (from UniProt Q586P9)”, the binding [1] is reported as “binds”.
With TbPam27 (from UniProt Q388L6) the binding [2] was “binds”, the binding [3] was “binds” and the binding [4] was “binds”.

— doi:10.1101/2024.01.31.578135
